In the supplement of paper PMC10849652:
This is one part of the list.

Protein sequences, listed by entry. Tags and fused reporters are not part of them. Lines headed by an entry give the natural chain unless they say otherwise; changes in a name come on top.
UniProt O60506: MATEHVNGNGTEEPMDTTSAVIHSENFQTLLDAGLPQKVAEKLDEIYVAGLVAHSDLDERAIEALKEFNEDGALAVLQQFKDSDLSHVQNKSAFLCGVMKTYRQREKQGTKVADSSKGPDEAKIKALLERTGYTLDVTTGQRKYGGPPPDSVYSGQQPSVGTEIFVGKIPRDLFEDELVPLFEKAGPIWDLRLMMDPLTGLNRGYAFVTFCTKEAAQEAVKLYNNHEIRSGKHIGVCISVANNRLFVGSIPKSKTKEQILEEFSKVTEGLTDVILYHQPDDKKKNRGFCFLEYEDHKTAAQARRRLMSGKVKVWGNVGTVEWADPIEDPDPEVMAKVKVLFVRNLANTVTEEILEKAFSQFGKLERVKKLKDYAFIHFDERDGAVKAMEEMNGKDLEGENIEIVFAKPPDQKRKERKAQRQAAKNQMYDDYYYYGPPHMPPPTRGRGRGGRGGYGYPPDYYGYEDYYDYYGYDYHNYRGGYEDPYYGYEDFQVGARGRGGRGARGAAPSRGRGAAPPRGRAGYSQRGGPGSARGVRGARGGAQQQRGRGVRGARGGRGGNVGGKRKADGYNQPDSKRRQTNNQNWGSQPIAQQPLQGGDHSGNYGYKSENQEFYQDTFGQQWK
UniProt Q9NRL3: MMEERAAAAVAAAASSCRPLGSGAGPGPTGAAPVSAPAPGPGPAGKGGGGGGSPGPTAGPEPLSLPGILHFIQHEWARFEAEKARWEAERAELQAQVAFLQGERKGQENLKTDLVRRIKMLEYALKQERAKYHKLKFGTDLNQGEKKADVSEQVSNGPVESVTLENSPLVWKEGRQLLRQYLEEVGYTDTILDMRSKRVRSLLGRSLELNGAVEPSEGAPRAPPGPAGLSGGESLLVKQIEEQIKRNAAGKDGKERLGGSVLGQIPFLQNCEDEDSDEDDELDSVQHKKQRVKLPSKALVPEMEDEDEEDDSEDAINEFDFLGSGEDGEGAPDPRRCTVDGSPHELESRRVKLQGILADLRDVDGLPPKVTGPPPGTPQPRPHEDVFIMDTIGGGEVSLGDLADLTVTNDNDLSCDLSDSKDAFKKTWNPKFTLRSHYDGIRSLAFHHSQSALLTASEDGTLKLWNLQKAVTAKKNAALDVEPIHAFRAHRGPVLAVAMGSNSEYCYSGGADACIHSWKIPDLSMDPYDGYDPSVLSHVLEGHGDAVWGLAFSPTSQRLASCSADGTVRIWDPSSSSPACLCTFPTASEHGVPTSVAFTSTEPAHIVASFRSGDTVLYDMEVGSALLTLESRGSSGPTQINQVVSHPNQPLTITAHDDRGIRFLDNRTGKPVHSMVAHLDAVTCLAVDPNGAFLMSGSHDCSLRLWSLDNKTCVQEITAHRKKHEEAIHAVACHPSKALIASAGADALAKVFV
UniProt P08247, whole entry, looked up: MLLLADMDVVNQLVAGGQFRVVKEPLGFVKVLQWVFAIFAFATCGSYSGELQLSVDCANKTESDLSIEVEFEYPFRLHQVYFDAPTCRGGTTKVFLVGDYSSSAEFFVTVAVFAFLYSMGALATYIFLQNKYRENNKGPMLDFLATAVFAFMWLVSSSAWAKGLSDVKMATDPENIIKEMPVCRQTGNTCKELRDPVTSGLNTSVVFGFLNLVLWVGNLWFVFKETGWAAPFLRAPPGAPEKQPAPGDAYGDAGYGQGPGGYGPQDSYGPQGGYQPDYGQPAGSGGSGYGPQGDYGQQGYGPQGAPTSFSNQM
UniProt O75529: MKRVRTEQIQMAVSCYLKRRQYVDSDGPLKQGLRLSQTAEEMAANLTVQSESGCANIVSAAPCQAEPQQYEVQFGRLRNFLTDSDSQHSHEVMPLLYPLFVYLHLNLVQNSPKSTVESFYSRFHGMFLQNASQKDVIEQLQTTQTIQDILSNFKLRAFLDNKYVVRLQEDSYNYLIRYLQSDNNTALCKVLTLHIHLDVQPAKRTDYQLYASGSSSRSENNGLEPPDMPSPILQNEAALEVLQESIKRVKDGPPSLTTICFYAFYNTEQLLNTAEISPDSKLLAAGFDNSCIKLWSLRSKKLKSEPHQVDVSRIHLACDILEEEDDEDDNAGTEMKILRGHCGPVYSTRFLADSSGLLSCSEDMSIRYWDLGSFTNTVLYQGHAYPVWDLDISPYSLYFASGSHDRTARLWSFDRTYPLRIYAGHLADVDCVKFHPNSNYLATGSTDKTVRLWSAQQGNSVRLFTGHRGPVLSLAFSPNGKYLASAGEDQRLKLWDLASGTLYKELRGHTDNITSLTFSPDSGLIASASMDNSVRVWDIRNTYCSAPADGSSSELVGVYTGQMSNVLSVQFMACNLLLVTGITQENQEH
UniProt Q8NBK3: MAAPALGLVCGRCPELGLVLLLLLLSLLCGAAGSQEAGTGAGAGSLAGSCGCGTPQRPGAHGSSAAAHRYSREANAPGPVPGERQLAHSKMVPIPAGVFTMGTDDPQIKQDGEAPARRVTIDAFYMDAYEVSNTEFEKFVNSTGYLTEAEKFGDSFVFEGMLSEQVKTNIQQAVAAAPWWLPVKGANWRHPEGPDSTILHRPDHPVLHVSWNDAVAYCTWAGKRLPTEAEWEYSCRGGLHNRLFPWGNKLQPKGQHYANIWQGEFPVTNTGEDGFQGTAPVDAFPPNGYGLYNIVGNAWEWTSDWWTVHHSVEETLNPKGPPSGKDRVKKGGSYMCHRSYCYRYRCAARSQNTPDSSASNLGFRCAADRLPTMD
UniProt Q96SI9: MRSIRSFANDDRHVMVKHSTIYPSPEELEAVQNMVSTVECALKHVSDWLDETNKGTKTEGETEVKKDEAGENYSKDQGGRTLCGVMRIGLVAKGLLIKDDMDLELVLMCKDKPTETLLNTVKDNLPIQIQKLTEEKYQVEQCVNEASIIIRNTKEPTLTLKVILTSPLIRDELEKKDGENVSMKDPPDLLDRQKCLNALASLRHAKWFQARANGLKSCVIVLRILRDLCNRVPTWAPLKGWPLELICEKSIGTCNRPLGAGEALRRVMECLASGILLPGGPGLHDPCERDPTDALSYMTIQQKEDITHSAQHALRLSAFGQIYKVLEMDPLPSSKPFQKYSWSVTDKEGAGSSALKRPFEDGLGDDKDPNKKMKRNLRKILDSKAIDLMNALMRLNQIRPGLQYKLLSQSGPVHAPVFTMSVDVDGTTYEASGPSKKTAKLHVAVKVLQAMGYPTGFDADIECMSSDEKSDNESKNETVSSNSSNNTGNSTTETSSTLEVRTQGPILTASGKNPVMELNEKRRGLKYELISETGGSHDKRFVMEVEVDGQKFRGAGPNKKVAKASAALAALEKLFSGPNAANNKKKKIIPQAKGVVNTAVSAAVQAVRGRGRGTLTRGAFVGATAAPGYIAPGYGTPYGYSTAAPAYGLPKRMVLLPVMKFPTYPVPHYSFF
UniProt Q9NZ72: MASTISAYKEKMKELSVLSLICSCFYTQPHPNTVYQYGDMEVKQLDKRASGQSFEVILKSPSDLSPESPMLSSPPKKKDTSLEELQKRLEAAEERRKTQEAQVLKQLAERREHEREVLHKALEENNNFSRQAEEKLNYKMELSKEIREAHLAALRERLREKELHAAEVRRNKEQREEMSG
UniProt Q9H7L9: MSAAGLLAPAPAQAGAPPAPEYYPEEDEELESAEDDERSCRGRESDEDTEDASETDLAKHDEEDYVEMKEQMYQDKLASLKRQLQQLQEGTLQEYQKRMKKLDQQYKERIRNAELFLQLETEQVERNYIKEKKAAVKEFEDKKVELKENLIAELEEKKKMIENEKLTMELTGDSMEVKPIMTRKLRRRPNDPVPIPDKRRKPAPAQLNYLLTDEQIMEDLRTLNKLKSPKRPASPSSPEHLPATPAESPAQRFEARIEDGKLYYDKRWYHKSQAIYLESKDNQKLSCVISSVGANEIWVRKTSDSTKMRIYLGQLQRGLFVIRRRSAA
UniProt P55854, whole entry, looked up: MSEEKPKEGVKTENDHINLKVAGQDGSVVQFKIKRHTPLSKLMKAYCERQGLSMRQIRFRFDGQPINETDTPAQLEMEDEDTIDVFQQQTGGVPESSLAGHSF
UniProt Q15022: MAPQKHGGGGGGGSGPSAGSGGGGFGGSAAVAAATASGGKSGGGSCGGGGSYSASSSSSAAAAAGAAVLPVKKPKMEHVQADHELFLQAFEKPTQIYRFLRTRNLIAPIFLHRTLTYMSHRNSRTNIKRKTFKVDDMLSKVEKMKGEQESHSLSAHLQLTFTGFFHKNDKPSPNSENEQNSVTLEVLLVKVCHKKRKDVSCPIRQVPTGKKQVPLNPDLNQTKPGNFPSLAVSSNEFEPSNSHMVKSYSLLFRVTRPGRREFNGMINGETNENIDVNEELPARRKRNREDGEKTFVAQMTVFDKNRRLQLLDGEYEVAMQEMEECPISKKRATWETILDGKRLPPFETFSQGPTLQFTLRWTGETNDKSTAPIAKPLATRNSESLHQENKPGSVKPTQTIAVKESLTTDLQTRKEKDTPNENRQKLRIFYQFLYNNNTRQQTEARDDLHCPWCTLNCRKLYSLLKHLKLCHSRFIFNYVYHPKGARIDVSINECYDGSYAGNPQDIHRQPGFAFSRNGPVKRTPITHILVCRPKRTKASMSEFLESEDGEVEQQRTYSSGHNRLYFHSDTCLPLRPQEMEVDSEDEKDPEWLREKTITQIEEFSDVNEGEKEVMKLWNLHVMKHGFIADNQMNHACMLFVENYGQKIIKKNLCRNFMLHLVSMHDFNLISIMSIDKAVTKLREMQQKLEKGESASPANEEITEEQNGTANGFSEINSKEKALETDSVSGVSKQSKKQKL

What was measured:
Assay in all cases: log2 fold change, soluble protein after heating vs DMSO (PISA); higher = thermal stabilisation; K562 lysate, 10 uM; active = over 0.2 and 3.5 SD of the protein, either way, in both replicates (recomputed)
vemurafenib = compound: CCCS(=O)(=O)Nc1ccc(F)c(C(=O)c2c[nH]c3ncc(-c4ccc(Cl)cc4)cc23)c1F [vemurafenib]
Procedure, shortened: (§1)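 Log-two fold change in thermal stability relative to solvent controls is reported from duplicates. For each sample, crude K562 extract from dounce-homogenised pellets in PBS pH 7.4 with 1 mM MgCl2, at 1 mg/mL protein, was treated with 10 μM compound for 30 min. Aliquots heated for 3 min across 48°C-58°C were pooled, brought to 0.5% NP-40 at 4°C and cleared at 21,000xg for 90 min. The supernatant was quantified by TMTpro 16plex LC-MS/MS with channel sums equalised.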

[1] = compound: CCCS(=O)(=O)Nc1ccc(F)c(C(=O)c2c[nH]c3ncc(Cl)cc23)c1F
Procedure, shortened: as §1

barasertib = compound: CCN(CCCOc1ccc2c(Nc3cc(CC(=O)Nc4cccc(F)c4)[nH]n3)ncnc2c1)CCOP(=O)(O)O [barasertib]
Procedure, shortened: as §1

[2] = compound: CC[C@@H]1C(=O)N(C)c2cnc(Nc3ccc(C(=O)NC4CCN(C)CC4)cc3OC)nc2N1C1CCCC1
Procedure, shortened: as §1

volasertib = compound: CC[C@@H]1C(=O)N(C)c2cnc(Nc3ccc(C(=O)N[C@H]4CC[C@H](N5CCN(CC6CC6)CC5)CC4)cc3OC)nc2N1C(C)C [volasertib]
Procedure, shortened: as §1

[3] = compound: CCn1c(C(=O)N(C2CC2)C2CC2)cc2c3c(ncn3C)c(Nc3cc(C)n(C)n3)nc21
Procedure, shortened: as §1

[4] = compound: CCn1cc(-c2ccnc3[nH]c(-c4cccc(CN(C)C)c4)cc23)c(-c2ccc(NC(=O)N(C)C)cc2)n1
Procedure, shortened: as §1

[5] = compound: CN1CCC(CNc2ccc3ncc(-c4cccc(OC(F)(F)F)c4)n3n2)CC1
Procedure, shortened: as §1

sotrastaurin = compound: CN1CCN(c2nc(C3=C(c4c[nH]c5ccccc45)C(=O)NC3=O)c3ccccc3n2)CC1 [sotrastaurin]
Procedure, shortened: as §1

alvocidib = compound: CN1CC[C@H](c2c(O)cc(O)c3c(=O)cc(-c4ccccc4Cl)oc23)[C@H](O)C1 [alvocidib]
Procedure, shortened: as §1

Tubastatin A = compound: CN1CCc2c(c3ccccc3n2Cc2ccc(C(=O)NO)cc2)C1 [Tubastatin A]
Procedure, shortened: as §1

[6] = compound: CNC(=O)C1=CC=CC=C1NC2=NC(=NC=C2Cl)NC3=C(C=C(C=C3)N4CCOCC4)OC
Procedure, shortened: as §1

defactinib = compound: CNC(=O)c1ccc(Nc2ncc(C(F)(F)F)c(NCc3nccnc3N(C)S(C)(=O)=O)n2)cc1 [defactinib]
Procedure, shortened: as §1

encorafenib = compound: COC(=O)N[C@@H](C)CNc1nccc(-c2cn(C(C)C)nc2-c2cc(Cl)cc(NS(C)(=O)=O)c2F)n1 [encorafenib]
Procedure, shortened: as §1

[7] = compound: COC(=O)[C@H](CCSC)NC(=O)C1=C(C=C(C=C1)NC[C@H](CS)N)C2=CC=CC=C2
Procedure, shortened: as §1

alisertib = compound: COc1cc(Nc2ncc3c(n2)-c2ccc(Cl)cc2C(c2c(F)cccc2OC)=NC3)ccc1C(=O)O [alisertib]
Procedure, shortened: as §1

[8] = compound: COc1cc2nc(-c3cc(F)ccc3O)nc(N[C@@H]3CNC[C@H]3C(C)(C)O)c2cc1OC
Procedure, shortened: as §1

gefitinib = compound: COc1cc2ncnc(Nc3ccc(F)c(Cl)c3)c2cc1OCCCN1CCOCC1 [gefitinib]
Procedure, shortened: as §1

saracatinib = compound: CN1CCN(CCOc2cc(OC3CCOCC3)c3c(Nc4c(Cl)ccc5c4OCO5)ncnc3c2)CC1 [saracatinib]
Procedure, shortened: as §1

[9] = compound: CNc1nc(-c2ccc3c(N)n[nH]c3c2)cc(N2C[C@@H](C(=O)NC3CCCCC3)CC[C@H]2C)n1
Procedure, shortened: as §1

Measured: log2 fold change

SYNCRIP isoform 3 (UniProt O60506)
inactive: vemurafenib 0.1 | [1] 0.091 | barasertib -0.053 | [2] -0.008 | volasertib 0.078 | [3] 0.018 | [4] 0.008 | [5] -0.026 | sotrastaurin 0.04 | alvocidib -0.008 | Tubastatin A 0.049 | [6] 0.085 | defactinib -0.052 | encorafenib -0.042 | [7] 0.026 | alisertib 0.062 | [8] 0.005 | gefitinib 0.013

STRN4 isoform 3 (UniProt Q9NRL3)
inactive: vemurafenib 0.007 | [1] 0.008 | barasertib 0.09 | [2] -0.018 | volasertib -0.026 | [3] 0.049 | [4] -0.039 | [5] 0.063 | saracatinib -0.002 | sotrastaurin -0.016 | alvocidib -0.022 | Tubastatin A -0.029 | [6] 0.037 | defactinib 0.011 | [9] -0.031 | encorafenib 0.036 | [7] 0.063 | alisertib 0.03 | [8] -0.067 | gefitinib -0.034

SYP (UniProt P08247)
inactive: vemurafenib -0.026 | [1] -0.021 | barasertib 0.057 | [2] -0.012 | volasertib 0.069 | [3] 0.045 | [4] 0.076 | [5] -0.003 | saracatinib 0.047 | sotrastaurin 0.026 | alvocidib -0.085 | Tubastatin A -0.128 | [6] 0.114 | defactinib -0.057 | [9] 0.02 | encorafenib -0.105 | [7] -0.041 | alisertib -0.005 | [8] 0.08 | gefitinib 0.086

TAF5L (UniProt O75529)
inactive: vemurafenib 0.07 | barasertib 0.121 | [2] 0.03 | [3] 0.081 | [4] 0.011 | [5] 0.067 | saracatinib 0.016 | sotrastaurin -0.045 | alvocidib -0.113 | Tubastatin A -0.026 | [6] 0.012 | defactinib 0.282 | [9] -0.025 | encorafenib 0.072 | [7] 0.015 | alisertib -0.083 | gefitinib 0.03

3 neighbouring entries out of the list so far, for reference:
SYNCRIP isoform 3 (UniProt O60506)
inactive: vemurafenib 0.1 | [1] 0.091 | barasertib -0.053 | [2] -0.008 | volasertib 0.078 | [3] 0.018 | [4] 0.008 | [5] -0.026 | sotrastaurin 0.04 | alvocidib -0.008 | Tubastatin A 0.049 | [6] 0.085 | defactinib -0.052 | encorafenib -0.042 | [7] 0.026 | alisertib 0.062 | [8] 0.005 | gefitinib 0.013

STRN4 isoform 3 (UniProt Q9NRL3)
inactive: vemurafenib 0.007 | [1] 0.008 | barasertib 0.09 | [2] -0.018 | volasertib -0.026 | [3] 0.049 | [4] -0.039 | [5] 0.063 | saracatinib -0.002 | sotrastaurin -0.016 | alvocidib -0.022 | Tubastatin A -0.029 | [6] 0.037 | defactinib 0.011 | [9] -0.031 | encorafenib 0.036 | [7] 0.063 | alisertib 0.03 | [8] -0.067 | gefitinib -0.034

SYP (UniProt P08247)
inactive: vemurafenib -0.026 | [1] -0.021 | barasertib 0.057 | [2] -0.012 | volasertib 0.069 | [3] 0.045 | [4] 0.076 | [5] -0.003 | saracatinib 0.047 | sotrastaurin 0.026 | alvocidib -0.085 | Tubastatin A -0.128 | [6] 0.114 | defactinib -0.057 | [9] 0.02 | encorafenib -0.105 | [7] -0.041 | alisertib -0.005 | [8] 0.08 | gefitinib 0.086

Following part.

SUMF1 (UniProt Q8NBK3)
inactive: vemurafenib 0.215 | [1] 0.055 | barasertib 0.005 | [2] 0.112 | volasertib 0.037 | [3] -0.036 | [4] -0.013 | [5] 0.068 | saracatinib -0.001 | sotrastaurin -0.071 | alvocidib -0.049 | Tubastatin A -0.005 | [6] 0.075 | defactinib 0.08 | [9] 0.035 | encorafenib 0.101 | [7] -0.075 | alisertib 0.096 | [8] -0.025 | gefitinib 0.113

SUPT5H (UniProt O00267)
inactive: vemurafenib 0.032 | [1] 0.012 | barasertib 0.007 | [2] -0.006 | volasertib 0.002 | [3] 0.011 | [4] 0.09 | [5] -0.022 | saracatinib -0.015 | sotrastaurin -0.006 | alvocidib 0.014 | Tubastatin A -0.01 | [6] 0.019 | defactinib 0.005 | [9] 0.015 | encorafenib 0.003 | [7] -0.009 | alisertib 0.009 | [8] 0.002 | gefitinib 0.024

STRBP (UniProt Q96SI9)
inactive: vemurafenib -0.001 | [1] 0.019 | barasertib 0.032 | [2] 0.034 | volasertib -0.002 | [3] 0.073 | [4] -0.056 | [5] 0.065 | saracatinib -0.042 | sotrastaurin 0.024 | alvocidib -0.043 | Tubastatin A -0.023 | [6] 0.03 | defactinib 0.011 | [9] 0.087 | encorafenib 0.067 | [7] 0.098 | alisertib -0.003 | [8] 0.012 | gefitinib -0.004

STMN3 (UniProt Q9NZ72)
inactive: vemurafenib -0.123 | [1] -0.006 | barasertib 0.098 | [2] 0.096 | volasertib 0.002 | [3] -0.066 | saracatinib 0.053 | sotrastaurin 0.009 | Tubastatin A 0.009 | [6] 0.014 | defactinib 0.023 | [9] 0.029 | encorafenib -0.015 | [7] -0.021 | alisertib -0.082 | [8] -0.012 | gefitinib -0.041

SUDS3 (UniProt Q9H7L9)
inactive: vemurafenib -0.04 | [1] 0.032 | barasertib 0.02 | [2] 0.023 | volasertib 0.018 | [3] -0.043 | [4] -0.029 | [5] 0.02 | saracatinib 0.02 | sotrastaurin -0.007 | alvocidib 0 | Tubastatin A 0.005 | [6] 0.006 | defactinib -0.007 | [9] 0.01 | encorafenib 0.022 | [7] -0.006 | alisertib -0.033 | [8] -0.012 | gefitinib 0.017

SUMO3 isoform 2 (UniProt P55854)
inactive: vemurafenib -0.001 | [1] -0.025 | barasertib 0.008 | [2] 0.056 | volasertib 0.055 | [3] -0.024 | [4] -0.108 | [5] 0.023 | saracatinib 0 | sotrastaurin -0.049 | alvocidib 0.009 | Tubastatin A 0.129 | [6] 0.018 | defactinib -0.032 | [9] 0.038 | encorafenib -0.003 | [7] -0.051 | alisertib -0.026 | [8] 0.017 | gefitinib -0.113

SUZ12 (UniProt Q15022)
inactive: vemurafenib 0.012 | [1] 0.022 | barasertib -0.012 | [2] 0.024 | volasertib -0.001 | [3] 0.012 | [4] -0.026 | [5] -0.002 | saracatinib -0.019 | sotrastaurin 0 | alvocidib -0.004 | Tubastatin A -0.012 | [6] 0.009 | defactinib 0.049 | [9] 0.027 | encorafenib 0 | [7] 0.101 | alisertib -0.057 | [8] -0.062 | gefitinib 0.062
